pKi: −log10 of the molar value.
Legend:
[1] = biological target: D(3) dopamine receptor (Homo sapiens, UniProt P35462)
[2] = biological target: 5-hydroxytryptamine receptor 2A (Rattus norvegicus, UniProt P14842)
[3] = biological target: 5-hydroxytryptamine receptor 2A (Homo sapiens, UniProt P28223)

Sequences of proteins named here, by UniProt entry; tags and fusion partners are left off. A line that says so, or that is headed by a name, gives the form on record, which may keep a tag or linker.
UniProt P35462, as listed by the source: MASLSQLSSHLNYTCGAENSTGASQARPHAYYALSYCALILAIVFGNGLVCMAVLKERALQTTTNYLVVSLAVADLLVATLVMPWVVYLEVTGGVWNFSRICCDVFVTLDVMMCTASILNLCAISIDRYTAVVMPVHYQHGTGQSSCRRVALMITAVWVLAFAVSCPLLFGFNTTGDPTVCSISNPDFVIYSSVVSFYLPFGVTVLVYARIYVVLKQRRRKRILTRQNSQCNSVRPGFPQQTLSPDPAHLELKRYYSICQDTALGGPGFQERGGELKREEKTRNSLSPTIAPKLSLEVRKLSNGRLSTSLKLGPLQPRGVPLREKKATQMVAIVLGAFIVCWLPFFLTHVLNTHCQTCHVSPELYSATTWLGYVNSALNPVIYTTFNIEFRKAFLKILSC
UniProt P14842, whole entry: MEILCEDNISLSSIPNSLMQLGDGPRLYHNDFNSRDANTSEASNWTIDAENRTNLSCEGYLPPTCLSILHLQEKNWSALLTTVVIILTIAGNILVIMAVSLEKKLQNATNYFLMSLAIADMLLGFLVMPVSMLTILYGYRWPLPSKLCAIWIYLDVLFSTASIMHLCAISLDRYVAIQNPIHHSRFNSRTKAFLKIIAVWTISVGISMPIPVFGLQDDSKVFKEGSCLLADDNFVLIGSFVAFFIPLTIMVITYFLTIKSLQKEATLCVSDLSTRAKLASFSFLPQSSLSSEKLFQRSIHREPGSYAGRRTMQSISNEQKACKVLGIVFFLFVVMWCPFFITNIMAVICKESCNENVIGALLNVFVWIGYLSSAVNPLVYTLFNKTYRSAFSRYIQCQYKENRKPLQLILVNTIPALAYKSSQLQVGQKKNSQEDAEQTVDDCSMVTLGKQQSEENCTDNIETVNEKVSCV
UniProt P28223, whole entry: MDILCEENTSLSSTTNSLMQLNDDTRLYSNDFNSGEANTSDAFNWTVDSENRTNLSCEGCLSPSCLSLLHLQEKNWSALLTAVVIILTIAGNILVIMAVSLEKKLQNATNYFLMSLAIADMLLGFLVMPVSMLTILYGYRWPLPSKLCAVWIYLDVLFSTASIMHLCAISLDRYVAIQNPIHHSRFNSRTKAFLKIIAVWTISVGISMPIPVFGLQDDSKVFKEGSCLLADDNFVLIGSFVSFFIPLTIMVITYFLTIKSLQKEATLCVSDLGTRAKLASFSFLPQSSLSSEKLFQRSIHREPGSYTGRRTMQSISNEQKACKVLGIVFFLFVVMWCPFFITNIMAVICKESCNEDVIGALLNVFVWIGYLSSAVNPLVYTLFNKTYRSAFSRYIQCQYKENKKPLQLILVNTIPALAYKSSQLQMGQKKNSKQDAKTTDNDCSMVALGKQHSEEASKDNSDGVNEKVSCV

SMILES | pKi [1] | pKi [2] | pKi [3]
OCCOCCN1CCN(C2=Nc3ccccc3Sc3ccccc32)CC1 [2-[2-(4-dibenzo[b,f][1,4]thiazepin-11-ylpiperazin-1-yl)ethoxy]ethanol] | 6.08 | 6.73 | –
COc1cc(C(C)=O)ccc1OCCCN1CCC(c2noc3cc(F)ccc23)CC1 | – | – | 8.25

From BindingDB's records for doi:10.1016/s0014-2999(96)00840-0 (Hoechst Marion Roussel, 1996)
